According to paper PMC2867455 (Journal of medicinal chemistry, 2010):

Experiments:
[1] = active metabolite at therapeutic doses of Loratadine; cited from earlier work
[2] = target: T1, PFTase (Saccharomyces cerevisiae, UniProt P22007+P29703); assay: PFTase in vitro continuous-fluorescence assay; assay type: biochemical
T1 sequence (P22007 1-431): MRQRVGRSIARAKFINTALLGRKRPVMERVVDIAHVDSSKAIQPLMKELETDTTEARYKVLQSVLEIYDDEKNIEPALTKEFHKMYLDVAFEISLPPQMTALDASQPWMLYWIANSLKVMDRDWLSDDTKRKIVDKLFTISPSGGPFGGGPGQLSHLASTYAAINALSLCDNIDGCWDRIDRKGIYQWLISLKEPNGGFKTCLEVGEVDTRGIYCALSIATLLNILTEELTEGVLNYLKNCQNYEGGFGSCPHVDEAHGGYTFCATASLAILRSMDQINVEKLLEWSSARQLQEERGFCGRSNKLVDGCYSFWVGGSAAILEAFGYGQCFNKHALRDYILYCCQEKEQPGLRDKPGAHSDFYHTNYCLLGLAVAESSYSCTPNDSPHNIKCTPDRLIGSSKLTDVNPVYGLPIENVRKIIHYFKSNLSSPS
T1 sequence (P29703 1-316): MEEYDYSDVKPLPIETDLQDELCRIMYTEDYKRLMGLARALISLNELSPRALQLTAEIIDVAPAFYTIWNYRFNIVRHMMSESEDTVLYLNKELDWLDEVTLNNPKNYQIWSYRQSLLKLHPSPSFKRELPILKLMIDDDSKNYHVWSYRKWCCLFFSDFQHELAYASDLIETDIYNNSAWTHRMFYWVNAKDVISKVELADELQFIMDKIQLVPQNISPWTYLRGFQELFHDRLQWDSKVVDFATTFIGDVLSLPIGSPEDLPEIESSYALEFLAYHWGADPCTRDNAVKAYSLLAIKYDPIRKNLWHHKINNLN

Clc1ccc2c(c1)CCc1cccnc1C2=C1CCNCC1 [Desloratadine]
plasma concentration [1]: approximately 300 nM
PFTase inhibition (in words) [2]: not an inhibitor of PFTase
